Measured values reported in the supplement of paper PMC8728848.
Some of the results follow.

What was measured:
Assay in all cases: glycan array binding signal (z-score within array); higher = stronger binding
Conditions in all cases: glycan notation: IUPAC condensed, linker removed
[1] = target: Fuc(a1-2)Gal(b1-4)GlcNAc(b1-3)Gal(b1-4)GlcNAc(b1-2)Man(a1-3)[Fuc(a1-2)Gal(b1-4)GlcNAc(b1-3)Gal(b1-4)GlcNAc(b1-2)Man(a1-6)]Man(b1-4)GlcNAc(b1-4)GlcNAc
Procedure, shortened: (§1)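 Glycan array binding is given as a within-array Z-score, which can be read as non-binding when negative. The arrays, 3228 of them, came from the Consortium for Functional Glycomics database and were retained only where the protein sequence was available. Z-scores were averaged across arrays of the same protein sequence at different concentrations or buffers and across linkers.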

[2] = target: Fuc(a1-2)Gal(b1-4)GlcNAc(b1-3)Gal(b1-4)GlcNAc(b1-3)Gal(b1-4)GlcNAc
Procedure, shortened: as §1

[3] = target: Fuc(a1-2)Gal(b1-4)GlcNAc(b1-3)GalNAc
Procedure, shortened: as §1

[4] = target: Fuc(a1-2)Gal(b1-4)GlcNAc(b1-3)[Fuc(a1-2)Gal(b1-4)GlcNAc(b1-6)]GalNAc
Procedure, shortened: as §1

[5] = target: Fuc(a1-2)Gal(b1-4)GlcNAc(b1-3)[Fuc(a1-3)[Gal(b1-4)]GlcNAc(b1-6)]Gal(b1-4)Glc
Procedure, shortened: as §1

[6] = target: Fuc(a1-2)Gal(b1-4)GlcNAc(b1-6)GalNAc
Procedure, shortened: as §1

[7] = target: Fuc(a1-2)Gal(b1-4)GlcNAc6S
Procedure, shortened: as §1

[8] = target: Fuc(a1-2)Gal(b1-4)[Fuc(a1-3)]GlcNAc
Procedure, shortened: as §1

[9] = target: Fuc(a1-2)Gal(b1-4)[Fuc(a1-3)]GlcNAc(b1-2)Man(a1-3)[Fuc(a1-2)Gal(b1-4)[Fuc(a1-3)]GlcNAc(b1-2)Man(a1-6)]Man(b1-4)GlcNAc(b1-4)[Fuc(a1-6)]GlcNAc
Procedure, shortened: as §1

[10] = target: Fuc(a1-2)Gal(b1-4)[Fuc(a1-3)]GlcNAc(b1-2)[Fuc(a1-2)Gal(b1-4)[Fuc(a1-3)]GlcNAc(b1-4)]Man(a1-3)[Fuc(a1-2)Gal(b1-4)[Fuc(a1-3)]GlcNAc(b1-2)Man(a1-6)]Man(b1-4)GlcNAc(b1-4)GlcNAc
Procedure, shortened: as §1

[11] = target: Fuc(a1-2)Gal(b1-4)[Fuc(a1-3)]GlcNAc(b1-3)Gal(b1-4)[Fuc(a1-3)]GlcNAc
Procedure, shortened: as §1

[12] = target: Fuc(a1-2)Gal(b1-4)[Fuc(a1-3)]GlcNAc(b1-3)Gal(b1-4)[Fuc(a1-3)]GlcNAc(b1-3)Gal(b1-4)[Fuc(a1-3)]GlcNAc
Procedure, shortened: as §1

[13] = target: Fuc(a1-2)Gal(b1-4)[Fuc(a1-3)]GlcNAc(b1-3)GalNAc
Procedure, shortened: as §1

[14] = target: Fuc(a1-2)Gal(b1-4)[Fuc(a1-3)]GlcNAc(b1-3)[Neu5Ac(a2-6)Gal(b1-4)GlcNAc(b1-6)]Gal(b1-4)Glc
Procedure, shortened: as §1

[15] = target: Fuc(a1-2)Gal3S(b1-4)GlcNAc
Procedure, shortened: as §1

[16] = target: Fuc(a1-2)Gal6S(b1-3)GlcNAc
Procedure, shortened: as §1

[17] = target: Fuc(a1-2)Gal6S(b1-3)GlcNAc6S
Procedure, shortened: as §1

Fuc(a1-2)Gal6S(b1-4)Glc = target: Fuc(a1-2)Gal6S(b1-4)Glc
Procedure, shortened: as §1

[18] = target: Fuc(a1-2)Gal6S(b1-4)Glc6S
Procedure, shortened: as §1

Fuc(a1-2)[Gal(a1-3)]Gal = target: Fuc(a1-2)[Gal(a1-3)]Gal
Procedure, shortened: as §1

[19] = target: Fuc(a1-2)[Gal(a1-3)]Gal(b1-3)GalNAc
Procedure, shortened: as §1

[20] = target: Fuc(a1-2)[Gal(a1-3)]Gal(b1-3)GalNAc(b1-3)Gal(a1-4)Gal(b1-4)Glc
Procedure, shortened: as §1

[21] = target: Fuc(a1-2)[Gal(a1-3)]Gal(b1-3)GlcNAc
Procedure, shortened: as §1

[22] = target: Fuc(a1-2)[Gal(a1-3)]Gal(b1-3)GlcNAc(b1-2)Man(a1-3)[Fuc(a1-2)[Gal(a1-3)]Gal(b1-3)GlcNAc(b1-2)Man(a1-6)]Man(b1-4)GlcNAc(b1-4)GlcNAc
Procedure, shortened: as §1

[23] = target: Fuc(a1-2)[Gal(a1-3)]Gal(b1-3)GlcNAc(b1-2)Man(a1-3)[Fuc(a1-2)[Gal(a1-3)]Gal(b1-3)GlcNAc(b1-2)Man(a1-6)]Man(b1-4)GlcNAc(b1-4)[Fuc(a1-6)]GlcNAc
Procedure, shortened: as §1

[24] = target: Fuc(a1-2)[Gal(a1-3)]Gal(b1-3)GlcNAc(b1-3)GalNAc
Procedure, shortened: as §1

[25] = target: Fuc(a1-2)[Gal(a1-3)]Gal(b1-3)GlcNAc(b1-6)GalNAc
Procedure, shortened: as §1

[26] = target: Fuc(a1-2)[Gal(a1-3)]Gal(b1-4)Glc
Procedure, shortened: as §1

[27] = target: Fuc(a1-2)[Gal(a1-3)]Gal(b1-4)GlcNAc
Procedure, shortened: as §1

[28] = target: Fuc(a1-2)[Gal(a1-3)]Gal(b1-4)GlcNAc(b1-2)Man
Procedure, shortened: as §1

B1: Protein L(A-C2) (Finegoldia magna), Q51912 (protein)
chain: ADEPIDLEKLEEKRDKENVGNLPKFDNEVKDGSENPMAKYPDFDDEASTRFETENNEFEEKKVVSDNFFDQSEHPFVENKEETPETPETDSEEEVTIKANLIFANGSTQTAEFKGTFEKATSEAYAYADTLKKDNGEYTVDVADKGYTLNIKFAGKEKTPEEPKEEVTIKANLIYADGKTQTAEFKGTFEEATAEAYRYADALKKDNGEYTVDVADKGYTLNIKFAGKEKTPEEPKEEVTIKANLIYADGKTQTAEFKGTFEEATAEAYRYADLLAKENGKYTVDVADKGYTLNIKFAGKEKTPEEPKEEVTIKANLIYADGKTQTAEFKGTFAEATAEAYRYADLLAKENGKYTADLEDGGYTINIRFAGKKVDEKPEEKEQVTIKENIYFEDGTVQTATFKGTFAEATAEAYRYADLLSKEHGKYTADLEDGGYTINIRFAGKEEPEETPEKPEVQDGYASYEEAEAAAKEALKNDDVNKSYTIRQGADGRYYYVLSPVEAEEEKPEAQNGYATYEEAEAAAKKALENDPINKSYSIRQGADGRYYYVLSPVEAE
glycan array binding signal (z-score) [1]: 0.464 | glycan array binding signal (z-score) [2]: -0.239 | glycan array binding signal (z-score) [3]: 0.441 | glycan array binding signal (z-score) [4]: 0.928 | glycan array binding signal (z-score) [5]: -0.819 | glycan array binding signal (z-score) [6]: 0.521 | glycan array binding signal (z-score) [7]: -0.568 | glycan array binding signal (z-score) [8]: 0.417 | glycan array binding signal (z-score) [9]: 1.53 | glycan array binding signal (z-score) [10]: 1.92 | glycan array binding signal (z-score) [11]: -0.152 | glycan array binding signal (z-score) [12]: 0.114 | glycan array binding signal (z-score) [13]: 2.89 | glycan array binding signal (z-score) [14]: -0.518 | glycan array binding signal (z-score) [15]: -0.332 | glycan array binding signal (z-score) [16]: 0.085 | glycan array binding signal (z-score) [17]: 0.001 | glycan array binding signal (z-score) (Fuc(a1-2)Gal6S(b1-4)Glc): 1.09 | glycan array binding signal (z-score) [18]: -0.519 | glycan array binding signal (z-score) (Fuc(a1-2)[Gal(a1-3)]Gal): -0.22 | glycan array binding signal (z-score) [19]: -0.228 | glycan array binding signal (z-score) [20]: -0.621 | glycan array binding signal (z-score) [21]: 0.074 | glycan array binding signal (z-score) [22]: 0.223 | glycan array binding signal (z-score) [23]: 0.84 | glycan array binding signal (z-score) [24]: 0.859 | glycan array binding signal (z-score) [25]: 0.496 | glycan array binding signal (z-score) [26]: -0.427 | glycan array binding signal (z-score) [27]: -0.751 | glycan array binding signal (z-score) [28]: 0.012
